Results deposited as PubChem BioAssay AID1259254 (NCATS, 2017)

Purpose: 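Genome-wide screen for genes that prevent DNA re-replication in cancer cells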 (primary screen)
Cells: human HCT116 colorectal cancer cells
Reagents: single siRNA against human genes
Time to read-out: 3 days
Measurement: 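Imaged Hoechst DNA stain sorts each cell into a cycle phase by DNA amount; per plate, G2 fraction set to 0% for non-targeting and 100% for GMNN siRNA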
Scale: G2 robust z-score and G2 cells, % of GMNN control: higher = more G2 cells, more excess DNA replication; raw share of cells in G2: higher = larger share of cells with G2 DNA content
Rule for the call: 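An siRNA counts as active if its G2 robust z-score lies at least 5 MADs above the screen median; here such calls match roughly 38% of GMNN control or more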
In all, the deposit lists about 59,000 reagents; this is an unselected part. About 1,550 of them (2.6%) were called active. 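G2 share is only a proxy for re-replication; each gene was hit by three separate siRNAs, and active genes were retested.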 The raw values are shown without normalisation. A number with no mark means an inactive call. The numbers tell different reagents against one gene apart. No sequences are given here. Not given: the amount of reagent.

| target | reagent | G2 robust z-score | G2 cells, % of GMNN control | raw share of cells in G2 (%) |
| --- | --- | --- | --- | --- |
| ADAMTS15 (GeneID 170689) | 1 | 0.159 | 4.08 | 7.32 |
| ADAMTS15 (GeneID 170689) | 2 | 3.55 | 28 | 13.7 |
| ADAMTS15 (GeneID 170689) | 3 | -0.319 | 0.726 | 4.53 |
| RCAN3 (GeneID 11123) | 1 | 1.49 | 13.5 | 8.48 |
| RCAN3 (GeneID 11123) | 2 | -0.126 | 2.08 | 4.85 |
| RCAN3 (GeneID 11123) | 3 | 3.39 | 26.8 | 17.1 |
| ATP1B1 (GeneID 481) | 1 | -0.338 | 0.591 | 4.92 |
| ATP1B1 (GeneID 481) | 2 | -1.54 | -7.86 | 2.28 |
| ATP1B1 (GeneID 481) | 3 | 0.11 | 3.74 | 5.38 |
| DUX4L16 (GeneID 728169) | 1 | 0.369 | 5.57 | 4.83 |
| DUX4L16 (GeneID 728169) | 2 | -0.334 | 0.618 | 3.83 |
| DUX4L16 (GeneID 728169) | 3 | 0.664 | 7.64 | 6.44 |
| NOS1 (GeneID 4842) | 1 | -0.305 | 0.825 | 3.47 |
| NOS1 (GeneID 4842) | 2 | 3.08 | 24.6 | 14.9 |
| NOS1 (GeneID 4842) | 3 | 0.353 | 5.45 | 7.63 |
| CTAGE1 (GeneID 64693) | 1 | -0.85 | -3.02 | 3.27 |
| CTAGE1 (GeneID 64693) | 2 | -0.61 | -1.32 | 4.02 |
| CTAGE1 (GeneID 64693) | 3 | 0.0825 | 3.55 | 3.63 |
| KMT5B (GeneID 51111) | 1 | -0.905 | -3.4 | 2.56 |
| KMT5B (GeneID 51111) | 2 | -0.648 | -1.59 | 3.95 |
| KMT5B (GeneID 51111) | 3 | 0.458 | 6.19 | 5.2 |
| SPOP (GeneID 8405) | 1 | -0.377 | 0.317 | 3.63 |
| SPOP (GeneID 8405) | 2 | 2.06 | 17.4 | 13.8 |
| SPOP (GeneID 8405) | 3 | -0.206 | 1.51 | 3.97 |
| PRKAA1 (GeneID 5562) | 1 | -1.12 | -4.93 | 3.98 |
| PRKAA1 (GeneID 5562) | 2 | 0.456 | 6.17 | 7.49 |
| PRKAA1 (GeneID 5562) | 3 | 0.242 | 4.67 | 5.67 |
| RBM11 (GeneID 54033) | 1 | 0.311 | 5.15 | 6.15 |
| RBM11 (GeneID 54033) | 2 | 4.64 | 35.6 | 17.4 |
| RBM11 (GeneID 54033) | 3 | 0.355 | 5.46 | 8.43 |
| COPG2 (GeneID 26958) | 1 | 1.99 | 17 | 9.55 |
| COPG2 (GeneID 26958) | 2 | 2.97 | 23.9 | 17 |
| COPG2 (GeneID 26958) | 3 | 0.978 | 9.85 | 7.46 |
| COPS4 (GeneID 51138) | 1 | 1.98 | 16.9 | 10.3 |
| COPS4 (GeneID 51138) | 2 | 1.86 | 16 | 10.6 |
| COPS4 (GeneID 51138) | 3 | 0.17 | 4.16 | 4.57 |
| ARHGAP12 (GeneID 94134) | 1 | 3.14 | 25 | 15.7 |
| ARHGAP12 (GeneID 94134) | 2 | 0.726 | 8.08 | 7.53 |
| ARHGAP12 (GeneID 94134) | 3 | -0.733 | -2.19 | 4.65 |
| EIF4G2 (GeneID 1982) | 1 | -0.434 | -0.0884 | 5.2 |
| EIF4G2 (GeneID 1982) | 2 | -0.785 | -2.55 | 4.29 |
| EIF4G2 (GeneID 1982) | 3 | 1.55 | 13.8 | 8.59 |
| TSPYL4 (GeneID 23270) | 1 | 0.816 | 8.71 | 8.4 |
| TSPYL4 (GeneID 23270) | 2 | -0.17 | 1.77 | 4.87 |
| TSPYL4 (GeneID 23270) | 3 | -0.514 | -0.649 | 2.93 |
| ANKHD1-EIF4EBP3 (GeneID 404734) | 1 | -0.358 | 0.449 | 3.97 |
| ANKHD1-EIF4EBP3 (GeneID 404734) | 2 | -0.924 | -3.53 | 2.11 |
| ANKHD1-EIF4EBP3 (GeneID 404734) | 3 | -1.18 | -5.37 | 2.56 |
| TUT4 (GeneID 23318) | 1 | -0.499 | -0.545 | 4.21 |
| TUT4 (GeneID 23318) | 2 | 0.366 | 5.54 | 6.34 |
| TUT4 (GeneID 23318) | 3 | 0.884 | 9.18 | 6.51 |
| KLK3 (GeneID 354) | 1 | 0.76 | 8.31 | 8.46 |
| KLK3 (GeneID 354) | 2 | 3.5 | 27.6 | 14.7 |
| KLK3 (GeneID 354) | 3 | -0.614 | -1.35 | 3.41 |
| MTHFD1 (GeneID 4522) | 1 | -1.03 | -4.28 | 3.78 |
| MTHFD1 (GeneID 4522) | 2 | -1.42 | -7.03 | 2.64 |
| MTHFD1 (GeneID 4522) | 3 | -0.301 | 0.846 | 3.47 |
| OR2A4 (GeneID 79541) | 1 | 1.92 | 16.5 | 11.7 |
| OR2A4 (GeneID 79541) | 2 | -0.656 | -1.65 | 3.87 |
| OR2A4 (GeneID 79541) | 3 | 2.58 | 21.1 | 8.27 |
| NDRG2 (GeneID 57447) | 1 | 0.425 | 5.96 | 6.7 |
| NDRG2 (GeneID 57447) | 2 | 0.96 | 9.72 | 9.11 |
| NDRG2 (GeneID 57447) | 3 | -1.3 | -6.15 | 1.08 |
| SIGLEC7 (GeneID 27036) | 1 | 3.91 | 30.5 | 14.3 |
| SIGLEC7 (GeneID 27036) | 2 | -0.795 | -2.63 | 3.13 |
| SIGLEC7 (GeneID 27036) | 3 | -0.6 | -1.26 | 5.59 |
| SMC1B (GeneID 27127) | 1 | 0.525 | 6.66 | 9.19 |
| SMC1B (GeneID 27127) | 2 | -0.369 | 0.37 | 4.31 |
| SMC1B (GeneID 27127) | 3 | -0.402 | 0.137 | 4.03 |
| ELN (GeneID 2006) | 1 | -0.58 | -1.12 | 4.84 |
| ELN (GeneID 2006) | 2 | 2.4 | 19.8 | 10.7 |
| ELN (GeneID 2006) | 3 | -0.339 | 0.581 | 5.45 |
| NRF1 (GeneID 4899) | 1 | -0.292 | 0.911 | 3.82 |
| NRF1 (GeneID 4899) | 2 | 0.521 | 6.63 | 7.95 |
| NRF1 (GeneID 4899) | 3 | 0.0621 | 3.4 | 4.34 |
| RAP2A (GeneID 5911) | 1 | -0.123 | 2.1 | 4.84 |
| RAP2A (GeneID 5911) | 2 | 0.436 | 6.04 | 7.06 |
| RAP2A (GeneID 5911) | 3 | 0.116 | 3.79 | 6.12 |
| DENND3 (GeneID 22898) | 1 | 0.0099 | 3.04 | 6.18 |
| DENND3 (GeneID 22898) | 2 | 1.48 | 13.4 | 9.66 |
| DENND3 (GeneID 22898) | 3 | -0.385 | 0.261 | 3.27 |
| SLIT3-AS1 (GeneID 728095) | 1 | 0.773 | 8.41 | 6.73 |
| SLIT3-AS1 (GeneID 728095) | 2 | -0.04 | 2.69 | 3.82 |
| SLIT3-AS1 (GeneID 728095) | 3 | -1.07 | -4.56 | 1.87 |
| HEYL (GeneID 26508) | 1 | -0.93 | -3.58 | 2.82 |
| HEYL (GeneID 26508) | 2 | 0.606 | 7.23 | 9.45 |
| HEYL (GeneID 26508) | 3 | -1.2 | -5.48 | 2.37 |

A stretch of the results above:
| target | reagent | G2 robust z-score | G2 cells, % of GMNN control | raw share of cells in G2 (%) |
| --- | --- | --- | --- | --- |
| NOS1 (GeneID 4842) | 2 | 3.08 | 24.6 | 14.9 |
| NOS1 (GeneID 4842) | 3 | 0.353 | 5.45 | 7.63 |
| CTAGE1 (GeneID 64693) | 1 | -0.85 | -3.02 | 3.27 |
| CTAGE1 (GeneID 64693) | 2 | -0.61 | -1.32 | 4.02 |
| CTAGE1 (GeneID 64693) | 3 | 0.0825 | 3.55 | 3.63 |
| KMT5B (GeneID 51111) | 1 | -0.905 | -3.4 | 2.56 |
| KMT5B (GeneID 51111) | 2 | -0.648 | -1.59 | 3.95 |
| KMT5B (GeneID 51111) | 3 | 0.458 | 6.19 | 5.2 |
